Patent US20250320539A1, “METHOD FOR DETERMINING RISK OF ADVERSE EVENT” (KABUSHIKI KAISHA YAKULT HONSHA, priority 2021, published 2025)
At least one compound was matched to its structure with a doubt left.

Test system: Anaerostipes hadrus
Assay: Number of bacteria of A. hadrus in feces by RT-qPCR before and on the 8th day of DCF therapy
Format: in vivo, human
Conditions: esophageal cancer patients, 8th day after start of DCF therapy (docetaxel, cisplatin, 5-fluorouracil) vs before DCF therapy

In the case of `C[C@H]1COc2c(N3CCN(C)CC3)c(F)cc3c(=O)c(C(=O)O)cn1c23` [prophylactic antibiotic, levofloxacin], the “change in the number of bacteria of A. hadrus in feces after DCF therapy compared with before” value is reported as “tended to decrease”.
